B1: CEBPZ (protein, UniProt Q03701 1-1054, looked up)
CCAAT/enhancer-binding …: MAAVKEPLEFHAKRPWRPEEAVEDPDEEDEDNTSEAENGFSLEEVLRLGGTKQDYLMLATLDENEEVIDGGKKGAIDDLQQGELEAFIQNLNLAKYTKASLVEEDEPAEKENSSKKEVKIPKINNKNTAESQRTSVNKVKNKNRPEPHSDENGSTTPKVKKDKQNIFEFFERQTLLLRPGGKWYDLEYSNEYSLKPQPQDVVSKYKTLAQKLYQHEINLFKSKTNSQKGASSTWMKAIVSSGTLGDRMAAMILLIQDDAVHTLQFVETLVNLVKKKGSKQQCLMALDTFKELLITDLLPDNRKLRIFSQRPFDKLEQLSSGNKDSRDRRLILWYFEHQLKHLVAEFVQVLETLSHDTLVTTKTRALTVAHELLCNKPEEEKALLVQVVNKLGDPQNRIATKASHLLETLLCKHPNMKGVVSGEVERLLFRSNISSKAQYYAICFLNQMALSHEESELANKLITVYFCFFRTCVKKKDVESKMLSALLTGVNRAYPYSQTGDDKVREQIDTLFKVLHIVNFNTSVQALMLLFQVMNSQQTISDRYYTALYRKMLDPGLMTCSKQAMFLNLVYKSLKADIVLRRVKAFVKRLLQVTCQQMPPFICGALYLVSEILKAKPGLRSQLDDHPESDDEENFIDANDDEDMEKFTDADKETEIVKKLETEETVPETDVETKKPEVASWVHFDNLKGGKQLNKYDPFSRNPLFCGAENTSLWELKKLSVHFHPSVALFAKTILQGNYIQYSGDPLQDFTLMRFLDRFVYRNPKPHKGKENTDSVVMQPKRKHFIKDIRHLPVNSKEFLAKEESQIPVDEVFFHRYYKKVAVKEKQKRDADEESIEDVDDEEFEELIDTFEDDNCFSSGKDDMDFAGNVKKRTKGAKDNTLDEDSEGSDDELGNLDDDEVSLGSMDDEEFAEVDEDGGTFMDVLDDESESVPELEVHSKVSTKKSKRKGTDDFDFAGSFQGPRKKKRNLNDSSLFVSAEEFGHLLDENMGSKFDNIGMNAMANKDNASLKQLRWEAERDDWLHNRDAKSIIKKKKHFKKKRIKTTQKTKKQRK
B2: ATAD3A (protein, UniProt Q9NVI7 2-586, looked up)
ATPase family AAA …: SWLFGINKGPKGEGAGPPPPLPPAQPGAEGGGDRGLGDRPAPKDKWSNFDPTGLERAAKAARELEHSRYAKDALNLAQMQEQTLQLEQQSKLKEYEAAVEQLKSEQIRAQAEERRKTLSEETRQHQARAQYQDKLARQRYEDQLKQQQLLNEENLRKQEESVQKQEAMRRATVEREMELRHKNEMLRVEAEARARAKAERENADIIREQIRLKAAEHRQTVLESIRTAGTLFGEGFRAFVTDWDKVTATVAGLTLLAVGVYSAKNATLVAGRFIEARLGKPSLVRETSRITVLEALRHPIQVSRRLLSRPQDALEGVVLSPSLEARVRDIAIATRNTKKNRSLYRNILMYGPPGTGKTLFAKKLALHSGMDYAIMTGGDVAPMGREGVTAMHKLFDWANTSRRGLLLFVDEADAFLRKRATEKISEDLRATLNAFLYRTGQHSNKFMLVLASNQPEQFDWAINDRINEMVHFDLPGQEERERLVRMYFDKYVLKPATEGKQRLKLAQFDYGRKCSEVARLTEGMSGREIAQLAVSWQATAYASEDGVLTEAMMDTRVQDAVQQHQQKMCWLKAEGPGRGDEPSPS
B3: MYBBP1A (protein, UniProt Q9BQG0 1-1328, looked up)
Myb-binding protein 1A: MESRDPAQPMSPGEATQSGARPADRYGLLKHSREFLDFFWDIAKPEQETRLAATEKLLEYLRGRPKGSEMKYALKRLITGLGVGRETARPCYSLALAQLLQSFEDLPLCSILQQIQEKYDLHQVKKAMLRPALFANLFGVLALFQSGRLVKDQEALMKSVKLLQALAQYQNHLQEQPRKALVDILSEVSKATLQEILPEVLKADLNIILSSPEQLELFLLAQQKVPSKLKKLVGSVNLFSDENVPRLVNVLKMAASSVKKDRKLPAIALDLLRLALKEDKFPRFWKEVVEQGLLKMQFWPASYLCFRLLGAALPLLTKEQLHLVMQGDVIRHYGEHVCTAKLPKQFKFAPEMDDYVGTFLEGCQDDPERQLAVLVAFSSVTNQGLPVTPTFWRVVRFLSPPALQGYVAWLRAMFLQPDLDSLVDFSTNNQKKAQDSSLHMPERAVFRLRKWIIFRLVSIVDSLHLEMEEALTEQVARFCLFHSFFVTKKPTSQIPETKHPFSFPLENQAREAVSSAFFSLLQTLSTQFKQAPGQTQGGQPWTYHLVQFADLLLNHSHNVTTVTPFTAQQRQAWDRMLQTLKELEAHSAEARAAAFQHLLLLVGIHLLKSPAESCDLLGDIQTCIRKSLGEKPRRSRTKTIDPQEPPWVEVLVEILLALLAQPSHLMRQVARSVFGHICSHLTPRALQLILDVLNPETSEDENDRVVVTDDSDERRLKGAEDKSEEGEDNRSSESEEESEGEESEEEERDGDVDQGFREQLMTVLQAGKALGGEDSENEEELGDEAMMALDQSLASLFAEQKLRIQARRDEKNKLQKEKALRRDFQIRVLDLVEVLVTKQPENALVLELLEPLLSIIRRSLRSSSSKQEQDLLHKTARIFTHHLCRARRYCHDLGERAGALHAQVERLVQQAGRQPDSPTALYHFNASLYLLRVLKGNTAEGCVHETQEKQKAGTDPSHMPTGPQAASCLDLNLVTRVYSTALSSFLTKRNSPLTVPMFLSLFSRHPVLCQSLLPILVQHITGPVRPRHQACLLLQKTLSMREVRSCFEDPEWKQLMGQVLAKVTENLRVLGEAQTKAQHQQALSSLELLNVLFRTCKHEKLTLDLTVLLGVLQGQQQSLQQGAHSTGSSRLHDLYWQAMKTLGVQRPKLEKKDAKEIPSATQSPISKKRKKKGFLPETKKRKKRKSEDGTPAEDGTPAATGGSQPPSMGRKKRNRTKAKVPAQANGTPTTKSPAPGAPTRSPSTPAKSPKLQKKNQKPSQVNGAPGSPTEPAGQKQHQKALPKKGVLGKSPLSALARKKARLSLVIRSPSLLQSGAKKKAQVRKAGKP
B4: DDX5 (protein, UniProt P17844 1-614, looked up)
Probable ATP-dependent RNA …: MSGYSSDRDRGRDRGFGAPRFGGSRAGPLSGKKFGNPGEKLVKKKWNLDELPKFEKNFYQEHPDLARRTAQEVETYRRSKEITVRGHNCPKPVLNFYEANFPANVMDVIARQNFTEPTAIQAQGWPVALSGLDMVGVAQTGSGKTLSYLLPAIVHINHQPFLERGDGPICLVLAPTRELAQQVQQVAAEYCRACRLKSTCIYGGAPKGPQIRDLERGVEICIATPGRLIDFLECGKTNLRRTTYLVLDEADRMLDMGFEPQIRKIVDQIRPDRQTLMWSATWPKEVRQLAEDFLKDYIHINIGALELSANHNILQIVDVCHDVEKDEKLIRLMEEIMSEKENKTIVFVETKRRCDELTRKMRRDGWPAMGIHGDKSQQERDWVLNEFKHGKAPILIATDVASRGLDVEDVKFVINYDYPNSSEDYIHRIGRTARSTKTGTAYTFFTPNNIKQVSDLISVLREANQAINPKLLQLVEDRGSGRSRGRGGMKDDRRDRYSAGKRGGFNTFRDRENYDRGYSSLLKRDFGAKTQNGVYSAANYTNGSFGSNFVSAGIQTSFRTGNPTGTYQNGYDSTQQYGSNVPNMHNGMNQQAYAYPATAAAPMIGYPMPTGYSQ
B5: NOP2 (protein, UniProt P46087 1-812, looked up)
28S rRNA …: MGRKLDPTKEKRGPGRKARKQKGAETELVRFLPAVSDENSKRLSSRARKRAAKRRLGSVEAPKTNKSPEAKPLPGKLPKGISAGAVQTAGKKGPQSLFNAPRGKKRPAPGSDEEEEEEDSEEDGMVNHGDLWGSEDDADTVDDYGADSNSEDEEEGEALLPIERAARKQKAREAAAGIQWSEEETEDEEEEKEVTPESGPPKVEEADGGLQINVDEEPFVLPPAGEMEQDAQAPDLQRVHKRIQDIVGILRDFGAQREEGRSRSEYLNRLKKDLAIYYSYGDFLLGKLMDLFPLSELVEFLEANEVPRPVTLRTNTLKTRRRDLAQALINRGVNLDPLGKWSKTGLVVYDSSVPIGATPEYLAGHYMLQGASSMLPVMALAPQEHERILDMCCAPGGKTSYMAQLMKNTGVILANDANAERLKSVVGNLHRLGVTNTIISHYDGRQFPKVVGGFDRVLLDAPCSGTGVISKDPAVKTNKDEKDILRCAHLQKELLLSAIDSVNATSKTGGYLVYCTCSITVEENEWVVDYALKKRNVRLVPTGLDFGQEGFTRFRERRFHPSLRSTRRFYPHTHNMDGFFIAKFKKFSNSIPQSQTGNSETATPTNVDLPQVIPKSENSSQPAKKAKGAAKTKQQLQKQQHPKKASFQKLNGISKGADSELSTVPSVTKTQASSSFQDSSQPAGKAEGIREPKVTGKLKQRSPKLQSSKKVAFLRQNAPPKGTDTQTPAVLSPSKTQATLKPKDHHQPLGRAKGVEKQQLPEQPFEKAAFQKQNDTPKGPQPPTVSPIRSSRPPPAKRKKSQSRGNSQLLLS
B6: CDSN (protein, UniProt Q15517 33-529, looked up)
Corneodesmosin: KSIGTFSDPCKDPTRITSPNDPCLTGKGDSSGFSSYSGSSSSGSSISSARSSGGGSSGSSSGSSIAQGGSAGSFKPGTGYSQVSYSSGSGSSLQGASGSSQLGSSSSHSGNSGSHSGSSSSHSSSSSSFQFSSSSFQVGNGSALPTNDNSYRGILNPSQPGQSSSSSQTFGVSSSGQSVSSNQRPCSSDIPDSPCSGGPIVSHSGPYIPSSHSVSGGQRPVVVVVDQHGSGAPGVVQGPPCSNGGLPGKPCPPITSVDKSYGGYEVVGGSSDSYLVPGMTYSKGKIYPVGYFTKENPVKGSPGVPSFAAGPPISEGKYFSSNPIIPSQSAASSAIAFQPVGTGGVQLCGGGSTGSKGPCSPSSSRVPSSSSISSSSGLPYHPCGSASQSPCSPPGTGSFSSSSSSQSSGKIILQPCGSKSSSSGHPCMSVSSLTLTGGPDGSPHPDPSAGAKPCGSSSAGKIPCRSIRDILAQVKPLGPQLADPEVFLPQGELLNSP

One data set concerns mSWI/SNF complexes. The data set can be described thus: mSWI/SNF complex purification with HA-tagged baits and mass spectrometry (peptide counts). Set-up: species or system human. The note with it: 293_HA-BRD7: HA-BRD7 bait purification, total peptide count per co-purified protein.
On to B1, for which the Total is recorded as 7.
Regarding B2, the Total is 20.
Still for that read-out and setting: with B3 the figure was 16; with B4, 8.

Still in this data set, the particulars now being: 293_HA-BRD7: HA-BRD7 bait purification, unique peptide count per co-purified protein.
B1 gave a Unique of 6.
For B2, the Unique is given as 16.
The molecule B3 had a Unique of 16.
Turning to B4, the Unique worked out at 7.

Still in this data set, the particulars now being: 293_HA-BRD7 bait purification, mass spectrometry; total peptides per co-purified protein.
B5 had a Total of 2.

The data set is the same for the next values; noted with them: 293_HA-BRD7 bait purification, mass spectrometry; unique peptides per co-purified protein.
Take B5: the Unique is listed as 2.

The same data set, now with this note: total peptide count of the co-purified protein; 293_HA-BRD9 (HA-BRD9 bait, mass spectrometry), Table 3b.
Regarding B1, the Total amounted to 2.
In turn, B2 registered a Total of 2.
With B5, the Total is listed as 2.
The same measure, in the same setting: with B3 the figure was 2; with B4, 2.
In the case of B6, the Total is listed as 2.

The same data set, now with this note: unique peptide count of the co-purified protein; 293_HA-BRD9 (HA-BRD9 bait, mass spectrometry), Table 3b.
Regarding B1, the Unique is reported as 2.
Molecule B2 showed a Unique of 2.
B5 returned a Unique of 2.
Consider B3, for which the Unique is 2.
In the case of B4, the Unique is 2.
Turning to B6, the Unique is given as 2.

The record behind these values is patent US12729225B2, “Non-canonical SWI/SNF complex and uses thereof” (Dana-Farber Cancer Institute, Inc., priority 2018, dated 2026).
